Assay results reported in patent US7737138B2 (priority 2004, dated 2010).
Where a name gives a salt, the structure may show the parent alone.

Tested on: fibroblast cells (3T6)

Compound | RxI (therapeutic index) = LD50/EC50
1,9-Diethyl Ethylthioninium chloride [DEETC] | 2,667
CCN(CC)c1ccc2nc3ccc(N(CC)CC)cc3[s+]c2c1 [ETZ, Ethylthioninium Chloride (ETC) Zinc Chloride (Double Salt)] | 670
Ethylthioninium Chloride [ETC] | 480
